Results are given in words; binding and its absence hold for the method and conditions named. Binding seen in cells or lysates may run through a third protein. Some entries that bind do so weakly or less than the wild type.
Tests used:
Smad4 [1] = biological target: Smad4 (UniProt Q13485); test: co-IP; HEK293T cells transfected or co-transfected for 24 h; nuclear protein extract; ANTI-FLAG M2 Affinity Gel, 4 °C overnight; western blot
Smad3 [2] = biological target: Smad3 (UniProt P84022); test: as above
Smad2 [3] = biological target: Smad2 (UniProt Q15796); test: as above
Smad4 [4] = biological target: Smad4 (UniProt Q13485); test: co-IP; PLC/PRF/5 cells transfected or co-transfected for 24 h; nuclear protein extract; ANTI-FLAG M2 Affinity Gel, 4 °C overnight; western blot
Smad3 [5] = biological target: Smad3 (UniProt P84022); test: as above
Smad2 [6] = biological target: Smad2 (UniProt Q15796); test: as above

Protein sequences, listed by entry. Tags and fused reporters are not part of them.
UniProt Q13485: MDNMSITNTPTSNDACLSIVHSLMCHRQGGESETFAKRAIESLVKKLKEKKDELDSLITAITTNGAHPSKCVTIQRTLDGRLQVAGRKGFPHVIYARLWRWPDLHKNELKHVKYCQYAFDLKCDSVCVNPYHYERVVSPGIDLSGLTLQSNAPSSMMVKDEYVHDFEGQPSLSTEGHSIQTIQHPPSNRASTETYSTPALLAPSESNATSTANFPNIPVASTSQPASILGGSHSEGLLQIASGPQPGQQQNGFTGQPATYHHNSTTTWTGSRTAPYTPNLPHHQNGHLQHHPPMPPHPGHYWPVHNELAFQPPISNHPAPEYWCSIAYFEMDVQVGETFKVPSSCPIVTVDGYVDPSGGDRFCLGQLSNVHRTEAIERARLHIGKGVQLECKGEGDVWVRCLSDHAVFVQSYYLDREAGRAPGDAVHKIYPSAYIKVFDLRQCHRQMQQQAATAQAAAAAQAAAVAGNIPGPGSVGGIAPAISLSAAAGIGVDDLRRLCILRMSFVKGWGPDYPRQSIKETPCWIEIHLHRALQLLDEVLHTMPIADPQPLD
UniProt P84022: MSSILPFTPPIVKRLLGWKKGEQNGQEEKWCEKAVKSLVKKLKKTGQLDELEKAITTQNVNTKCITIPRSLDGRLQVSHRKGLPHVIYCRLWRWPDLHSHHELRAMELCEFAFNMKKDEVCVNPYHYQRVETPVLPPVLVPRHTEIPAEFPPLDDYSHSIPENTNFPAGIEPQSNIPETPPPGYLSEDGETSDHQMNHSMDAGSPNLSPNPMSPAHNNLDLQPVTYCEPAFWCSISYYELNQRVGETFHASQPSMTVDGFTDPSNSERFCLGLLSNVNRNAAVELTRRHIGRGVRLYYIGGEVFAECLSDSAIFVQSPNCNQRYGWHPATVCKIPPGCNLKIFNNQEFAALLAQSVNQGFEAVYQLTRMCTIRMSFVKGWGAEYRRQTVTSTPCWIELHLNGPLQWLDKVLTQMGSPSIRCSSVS
UniProt Q15796: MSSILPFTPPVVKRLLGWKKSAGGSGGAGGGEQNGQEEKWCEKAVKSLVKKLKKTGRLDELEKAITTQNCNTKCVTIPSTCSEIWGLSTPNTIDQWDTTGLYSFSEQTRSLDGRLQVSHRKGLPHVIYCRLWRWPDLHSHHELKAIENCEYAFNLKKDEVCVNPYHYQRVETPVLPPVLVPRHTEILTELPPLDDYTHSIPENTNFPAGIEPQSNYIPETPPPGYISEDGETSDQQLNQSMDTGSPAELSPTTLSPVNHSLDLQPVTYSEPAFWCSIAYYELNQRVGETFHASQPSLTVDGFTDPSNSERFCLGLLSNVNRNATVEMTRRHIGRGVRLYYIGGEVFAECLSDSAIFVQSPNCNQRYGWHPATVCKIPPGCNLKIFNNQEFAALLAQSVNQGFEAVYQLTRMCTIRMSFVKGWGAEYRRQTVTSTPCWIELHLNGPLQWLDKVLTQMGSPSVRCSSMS
UniProt Q9BZS1: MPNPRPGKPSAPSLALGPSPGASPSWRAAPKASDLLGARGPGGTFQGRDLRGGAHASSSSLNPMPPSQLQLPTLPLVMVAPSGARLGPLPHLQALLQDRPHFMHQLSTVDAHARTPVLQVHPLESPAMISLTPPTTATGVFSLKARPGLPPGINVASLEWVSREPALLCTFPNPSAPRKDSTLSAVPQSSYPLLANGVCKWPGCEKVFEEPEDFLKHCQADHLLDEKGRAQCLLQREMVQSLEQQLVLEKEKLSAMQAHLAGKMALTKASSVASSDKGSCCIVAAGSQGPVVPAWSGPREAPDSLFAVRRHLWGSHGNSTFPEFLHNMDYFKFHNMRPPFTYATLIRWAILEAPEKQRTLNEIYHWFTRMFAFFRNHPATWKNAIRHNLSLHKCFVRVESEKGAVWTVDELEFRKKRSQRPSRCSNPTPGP

Measured: binding

FOXP3 (full length of FOXP3) (from UniProt Q9BZS1 1-431)
binds: all assays above

— PMC7595121
